The name of at least one read-out is uncertain.
What follows are compounds tested on YRC1001/pRC124 (assay: Bioconversion of alcohols added to malt medium by a strain overexpressing ATF2). Settings: alcohol added at 100 µg/ml, malt non glucosé, 98 heures; ratio ester acétylé de l'alcool ajouté / somme des alcools et produits dérivés.
Format: cell-based, Saccharomyces cerevisiae
Experimental: Transformation dans la souche […], sous contrôle du promoteur proTEF1, le gène ATF2 (pRC124). Les précultures sont réalisées dans du milieu liquide SC20 (Sherman, 1991) dépourvu d'uracile et selon la même procédure que dans l'exemple 3. Les cultures sont ensemencées comme décrit précédemment dans du milieu malt, cette fois non glucosé. Ce dernier est supplémenté en leucine, lysine et histidine. A ce milieu malt, on ajoute juste avant ensemencement des alcools à raison de 100 μg/ml. Après fermentation pendant 98 heures, on analyse -comme décrit précédemment- les alcools et leurs produits dérivés (esters […] correspondant à l'alcool et son ester éthylé). La capacité de bioconversion est ensuite exprimée par le rapport « ester acétylé de l'alcool ajouté »/« somme des alcools et produits dérivés ». Cette valeur donne une indication […] au milieu extérieur par la souche de levure transformée. Les résultats sont […] Tableau 4.

SMILES	Bioconversion par YRC1001/pRC124
CC(C)=CCCC(C)CCO (stereo not drawn) [β-citronellol]	0,71
CCCCCCCCO [n-octanol]	0,078
CCCCCCCO [n-heptanol]	0,074
OCCc1ccccc1 [2-phényléthanol]	0,128
CCCCCCO [n-hexanol]	0,046

Source: EP1308501A1, “Fermented beverages comprising yeast transformed by the ATF2 gene” (Pernod-Ricard, priority 2001, dated 2003)
